Experimental data as given in PMC5503636.
No constants are given. Whether binding was seen depends on the method and setting. In cells and extracts the contact can be indirect. Some results given as binding are weak or reduced against the parent protein; the word gives no strength. Tags and fused reporters may be left off the sequences shown.

Protein sequences, listed by entry. Tags and fused reporters are not part of them.
UniProt P19793: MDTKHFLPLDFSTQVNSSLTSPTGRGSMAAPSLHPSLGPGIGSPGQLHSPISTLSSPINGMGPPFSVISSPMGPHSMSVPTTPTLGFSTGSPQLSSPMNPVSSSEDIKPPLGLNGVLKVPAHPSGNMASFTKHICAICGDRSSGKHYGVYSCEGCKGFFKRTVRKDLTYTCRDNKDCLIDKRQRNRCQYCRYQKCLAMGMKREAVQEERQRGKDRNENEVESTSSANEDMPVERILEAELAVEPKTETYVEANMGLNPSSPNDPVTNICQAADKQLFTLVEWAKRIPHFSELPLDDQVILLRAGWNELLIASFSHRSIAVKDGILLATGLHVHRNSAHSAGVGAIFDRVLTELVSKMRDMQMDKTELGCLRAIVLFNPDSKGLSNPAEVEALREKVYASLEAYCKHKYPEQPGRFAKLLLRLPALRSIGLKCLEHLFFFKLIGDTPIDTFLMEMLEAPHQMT

Molecular target: retinoid X receptor α (RXRα) (human (endogenous in HCT-116)) (UniProt P19793)
Test: co-IP; HCT-116 or HCT-116^Sphk2 cells with or without ATRA for 6 h; lysed in RIPA buffer (150 mM NaCl, 5 mM EDTA, 50 mM Hepes pH 7.0, 0.5% deoxycholate, 1% NP-40), 500 uL lysate with 2 ug of specific antibody; western blot of SphK2 and RXRα; which antibody precipitated is not stated

B1: sphingosine kinase 2 (SphK2), transfected (plasmid pWZL-Neo-Myr-Flag-SphK2) (enzyme, UniProt Q9NRA0 1-654)
chain: MNGHLEAEEQQDQRPDQELTGSWGHGPRSTLVRAKAMAPPPPPLAASTPLLHGEFGSYPARGPRFALTLTSQALHIQRLRPKPEARPRGGLVPLAEVSGCCTLRSRSPSDSAAYFCIYTYPRGRRGARRRATRTFRADGAATYEENRAEAQRWATALTCLLRGLPLPGDGEITPDLLPRPPRLLLLVNPFGGRGLAWQWCKNHVLPMISEAGLSFNLIQTERQNHARELVQGLSLSEWDGIVTVSGDGLLHEVLNGLLDRPDWEEAVKMPVGILPCGSGNALAGAVNQHGGFEPALGLDLLLNCSLLLCRGGGHPLDLLSVTLASGSRCFSFLSVAWGFVSDVDIQSERFRALGSARFTLGTVLGLATLHTYRGRLSYLPATVEPASPTPAHSLPRAKSELTLTPDPAPPMAHSPLHRSVSDLPLPLPQPALASPGSPEPLPILSLNGGGPELAGDWGGAGDAPLSPDPLLSSPPGSPKAALHSPVSEGAPVIPPSSGLPLPTPDARVGASTCGPPDHLLPPLGTPLPPDWVTLEGDFVLMLAISPSHLGADLVAAPHARFDDGLVHLCWVRSGISRAALLRLFLAMERGSHFSLGCPQLGYAAARAFRLEPLTPRGVLTVDGEQVEYGPLQAQMHPGIGTLLTGPPGCPGREP
**Q.** B1 was tested. Which binding did it give?
**A.** binds
